US7276536B2, “Method for increasing the bioavailability of the active form of S-[2-([[1-(2-ethylbutyl)cyclohexyl]carbonyl]amino) phenyl] 2-methylpropanethioate” (Japan Tobacco Inc., priority 2003, dated 2007)
At least one structure is not confirmed: it was looked up by name or label, or the drawing left a doubt.

Columns and labels:
CETP = target: T1, CETP (Oryctolagus cuniculus, UniProt P22687); settings: rabbits (Shinkai et al.; Kobayahi et al.; Okamoto et al.); cited from earlier work
T1 sequence (P22687 2-497): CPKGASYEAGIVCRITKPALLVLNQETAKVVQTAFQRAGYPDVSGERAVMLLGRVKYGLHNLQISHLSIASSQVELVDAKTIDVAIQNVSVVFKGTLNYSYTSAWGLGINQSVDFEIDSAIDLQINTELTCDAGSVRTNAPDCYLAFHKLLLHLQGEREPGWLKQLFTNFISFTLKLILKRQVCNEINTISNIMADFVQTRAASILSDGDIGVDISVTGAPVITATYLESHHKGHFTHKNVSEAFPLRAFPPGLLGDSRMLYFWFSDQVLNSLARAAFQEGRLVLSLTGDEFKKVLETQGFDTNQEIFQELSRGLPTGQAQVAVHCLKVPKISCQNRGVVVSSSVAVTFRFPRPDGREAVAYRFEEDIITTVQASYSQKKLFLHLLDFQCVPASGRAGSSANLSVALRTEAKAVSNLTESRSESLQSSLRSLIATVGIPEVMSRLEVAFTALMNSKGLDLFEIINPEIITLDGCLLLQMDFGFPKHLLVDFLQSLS

[1] = target: T2, cholesteryl ester transfer protein (CETP) (Homo sapiens, UniProt P11597); assay: CETP activity change from baseline after 900 mg oral Compound I, fed vs fasted (Example 2); assay type: in vivo, human (Caucasian male patients); settings: post-study visit, mean
T2 construct: from tissue; host or cells: samples from dosed male patients (CETP is described as a plasma protein)
T2 sequence (P11597 18-493): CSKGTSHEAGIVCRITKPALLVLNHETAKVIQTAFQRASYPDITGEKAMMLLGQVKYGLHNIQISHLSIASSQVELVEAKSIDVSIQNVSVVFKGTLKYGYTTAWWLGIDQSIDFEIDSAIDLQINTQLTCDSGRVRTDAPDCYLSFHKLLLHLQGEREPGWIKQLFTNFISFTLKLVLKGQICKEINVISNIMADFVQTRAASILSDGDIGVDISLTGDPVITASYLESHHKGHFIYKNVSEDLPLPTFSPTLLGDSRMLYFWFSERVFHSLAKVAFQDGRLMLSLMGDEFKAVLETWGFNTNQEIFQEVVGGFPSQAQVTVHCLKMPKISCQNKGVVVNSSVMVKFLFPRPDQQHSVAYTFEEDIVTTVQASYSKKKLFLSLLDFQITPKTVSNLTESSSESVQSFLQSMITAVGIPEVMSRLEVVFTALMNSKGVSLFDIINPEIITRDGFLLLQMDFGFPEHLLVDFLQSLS
Method: Administration, dosing, and sampling schedules were substantially similar to those described in Example 1.
The procedure for determining CETP activity was substantially similar to the procedures described in Tollefson et al., Methods Enzymol., 129, 797-816 (1986), and Kato et al., J. Biol. Chem., 264, 4082-4087 (1989).
CETP activity and changes from baseline (pre-dose) were measured, and the resulting data is summarized in Table 2 as percentage change from baseline. The mean changes from baseline (pre-dose) in CETP activity over time are set out in the plot of FIG. 3.

[2] = target: T2, cholesteryl ester transfer protein (CETP); assay: Relative CETP activity after 600 mg oral Compound I, fed vs fasted (Example 3); assay type: in vivo, human (Japanese male patients)

Question: With `CCC(CC)CC1(C(=O)Nc2ccccc2SC(=O)C(C)C)CCCCC1` [Compound I, S-[2-([[1-(2-ethylbutyl)cyclohexyl]carbonyl]amino)phenyl]2-methylpropanethioate] as the compound, how does the “inhibition of CETP activity” value (CETP) read?
Answer: inhibitor of CETP activity

Question: And the “CETP activity, Post-study (all subjects)” value [1]?
Answer: 96

Question: What about the “time of peak inhibition of CETP activity post-administration” value ([2]; with food) of the same compound?
Answer: 6 h

Question: What about the “time of peak inhibition of CETP activity post-administration” value ([2]; without food) of the same compound?
Answer: 8 h
